Reference: the supplement of paper PMC12067093, “Discovery and optimisation of a covalent ligand for TRIM25 and its application to targeted protein ubiquitination” (Chemical Science, 2025)
Some of the results follow.

Compound: CC1Cc2ccccc2N1C(=O)C1CCCN(C1)C(=O)CCl (mixture of isomers) [TRIM25 ligand 11 (diastereomer mixture)]
Experiment: probe-labelled cysteine peptide fold change vs DMSO (competition) (log2 fold change); higher = less target engagement (more negative = stronger competition)
Settings: THP-1, incubation time: 4 h
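Further: competitive chemoproteomic profiling in live THP-1 cells with an iodoacetamide desthiobiotin (IA-DTB) probe, comparing probe-labelled peptide intensities in compound-treated cells against DMSO-treated controls.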

Target	probe-labelled cysteine peptide fold change (10 µM)	probe-labelled cysteine peptide fold change (50 µM)
CNOT1_A5YKK6_420_HAEGQLSFIQHSLINPEIFCFADYPCHTVATDILK (UniProt A5YKK6)	0.0297	-0.0708
COMMD9_Q9P000_47_KLLDVTCSSLSVTQEEAEELLQALHR (UniProt Q9P000)	-0.195	0.271
COA7_Q96BR5_62_FNCEENQHSDSCYK (UniProt Q96BR5)	-0.046	-0.0432
CNOT9_Q92600_99_VCNALALLQCVASHPETR (UniProt Q92600)	-0.241	-0.145
COL15A1_P39059_965_GAIFPIPVRPHCK (UniProt P39059)	0.017	0.0574
CNP_P09543_111_RLDEDLAAYCR (UniProt P09543)	-0.0645	0.0555
CNOT1_A5YKK6_972_DYPQYCQHLASISHFMQFPHHLQEYIEYGQQSR (UniProt A5YKK6)	-0.058	0.282
CNN2_Q99439_61_DGTILCTLMNK (UniProt Q99439)	0.00655	0.0892
COG3_Q96JB2_363_DHCALVR (UniProt Q96JB2)	-0.0125	-0.0954
COPA_P53621_655_FSLALECGNIEIALEAAK (UniProt P53621)	0.0195	0.00176
COPA_P53621_522_LDALCNIHENIR (UniProt P53621)	0.0545	0.0751
COA7_Q96BR5_37_DPDGCYR (UniProt Q96BR5)	-0.045	0.0471
CNST_Q6PJW8_292_CSTQLLVSEDPK (UniProt Q6PJW8)	-0.296	-0.178
CNOT10_Q9H9A5_504_NSNQLGGNTESSESSETCSSK (UniProt Q9H9A5)	-0.128	0.114
